## Primary screen of a compound library

The values are deposited in ChEMBL (CHEMBL3988442, “University of Dundee, Small-Polar-MMV Screening Library” (2021)).

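Viability assay of Plasmodium falciparum sporozoites; the read-out is not stated. The concentration is filed as 10 mM, unlikely as a test dose, so the dose is not known. Direction is inferred from retests: higher values go with lower viability. Strong results were mostly tested again. About 34,000 compounds were tested under these conditions; 0.84% (about 280) showed 50% or more at least once.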

The filed quantity is “Percent Effect” (%). The controls that fix the scale are not given in the record; negative values are as filed. Compounds were drawn at random from those tested, without regard to their results. Two or more numbers in one place are separate tests of the same structure; such repeats can differ widely.

CCc1nc(C2CCCN(C(=O)NC3CC3)C2)no1 (stereo not shown) gave -3.367%. CC[C@H](C)Nc1nccc(-c2cnc3sccn3c2=O)n1 read 0.08467%. For O=C(c1cnc(-c2ccco2)s1)N1CCCC1Cn1cccn1 (stereo not shown) the result was 13.13%. COc1cccc(N2CCN(C(=O)c3noc4c3CCCCC4)CC2)c1 gave 16.44%. For O=C(O)C(F)(F)F.[H][C@@]12C[C@H](C(=O)NC)[C@@]([H])(CN(Cc3ccccc3)C1)O2 the result was -2.825%. Result for O[C@@H]1CCN(c2ccc3c(Cl)ccnc3c2F)C1 was -24.74% and -14.36%. COc1cc(CCC(=O)N2CCC(c3cncc(C)n3)CC2)on1 gave 1.837%.

CC(C)N1CCCCC1c1nc(N(C)C)ncc1I.Cl (stereo not shown) gave 8.012%. With CC(C)n1ccnc1CN1CCCC1c1cccc(-n2ccnc2)n1 (stereo not shown) the screen gave 7.772%. Result for COCC(=O)NC[C@H]1CC[C@H](c2ccnc3ncnn32)CC1 was -2.558%. Cc1cn2nc(N3CCCC3Cn3cncn3)sc2n1 (stereo not shown) gave 2.875% and -6.914% and -7.387%. Cc1ccc(CNC(=O)Cn2nc(-c3ccc(F)cc3)oc2=O)cc1F read 5.263%. With Clc1cc(CN2CCCC2Cn2cncn2)c2ncccc2c1 (stereo not shown) the screen gave 3.091%. For CCCn1cc(S(=O)(=O)N[C@H]2CN(CC(N)=O)C[C@@H]2C2CC2)cn1 the result was -3.86%.

CN(Cc1cccc(F)c1)C(=O)CN1CCCCC1Cn1cncn1 (stereo not shown) gave 1.309%. CNc1ncccc1CN1CCCCC1c1cc(C)n2ccnc2n1 (stereo not shown) gave -1.339%. With CC(=O)N1N=C(c2ccccc2)OC1C(=O)NCC(=O)OC(C)(C)C (stereo not shown) the screen gave -13.15%. CS(=O)(=O)N1CCC(C(=O)N2CCC3(CC2)OCCCO3)CC1 read 1.676%. Result for O=C(CNCCn1cccn1)NCC1(c2ccccc2)CCC1 was 8.741%. COCCn1cncc1-c1nc2c([nH]1)CC(C)(C)CNC2=O read -3.684%. For Cc1nnc(NCCn2nc(C)c(Cl)c2C)o1 the result was 2.615%.

CCc1nnc2n1CCN(C(=O)C(C)COCc1ccccc1)C2 (stereo not shown) gave 0.0815%. With COCCN1CCC(NC(=O)C2(c3cc(C)cc(C)c3)CC2)CC1 the screen gave 2.526%. Cc1cnn(CC2CCCN2C(=O)c2cccc(F)c2F)c1 (stereo not shown) read -1.958%. With O=C(NCCNc1ncccn1)c1ccc(-c2ccco2)[nH]c1=O the screen gave 5.6%. With Cc1ccc2c(c1)C(=O)NCC1(CCN(C(=O)c3cc(C)no3)CC1)O2 the screen gave 21.42%. O=C(O)C(F)(F)F.O=C(O)C(F)(F)F.[H][C@@]12C[C@@H](OCc3cccnc3)CN1CCN(C(=O)c1ccco1)C2 gave 5.412%. With O=C(O)C(F)(F)F.[H][C@]12C[C@@H](C(=O)NCc3cccs3)CO[C@@]1([H])CCN(C1CCCC1)C2 the screen gave 6.078%.

CC(C)c1nnc2n1CCN(C(=O)c1ccc(-n3cnnc3)cc1)C2 read 5.318%. Result for Cc1cc2nc(SCC(=O)N3CCOCC3)n(CC(C)C)c(=O)c2[nH]1 was 4.397%. Result for CC1=Nc2c(c(=O)[nH]n2C(C)C)C(c2ccc3c(c2)n(C)c(=O)n3C)S1 (stereo not shown) was -12.54% and -12.32%. CC(C)CN1CC(C(=O)NCc2ccnc(-n3cccn3)c2)CC1=O (stereo not shown) gave 12.93%. Result for CCN1CCN(C2CCN(Cc3noc(C4CC4)n3)CC2)C1=O was -4.305%. CCc1nccn1C1CCCN(C(=O)c2ccoc2C)C1 (stereo not shown) gave -6.697%. With O=C(O)C(F)(F)F.[H][C@@]12COC[C@]1([H])[C@@H](OCC1CCOCC1)CN2Cc1nccs1 the screen gave 19.26%.

For CN(C)CC(=O)N1CCC2(CC1)COCCN(c1ncccn1)C2 the result was 12.19%. With Cc1cc2n(n1)CC(CNCc1ccc(Oc3ccccc3)nc1)CN2 (stereo not shown) the screen gave 2.085%. O=C(O)c1cc(S(=O)(=O)Nc2ccc(F)cc2Cl)cc2c1OCCO2 read 5.249%. CN1C(=O)[C@H](OC(N)=O)[C@@H](C(=O)Nc2ccccc2)C12CCNCC2 gave -23.71%. For Fc1cccc(N2CCCC3(CN(Cc4nccs4)CCO3)C2)c1.O=C(O)C(F)(F)F.O=C(O)C(F)(F)F (stereo not shown) the result was 9.462%. CNS(=O)(=O)C1CCN(c2cc(C(C)C)nc(C(C)C)n2)C1 (stereo not shown) read -18.59%. With Fc1ccc(CN2Cc3nccn3CC(CN3CCOCC3)C2)cc1.O=C(O)C(F)(F)F.O=C(O)C(F)(F)F (stereo not shown) the screen gave -20.57%.

Cc1ncnc2c1CCN(c1ccccn1)CC2.O=C(O)C(F)(F)F gave -7.815%. With CC(C)(CO)Nc1cc(-c2cn[nH]c2)ncn1.Cl the screen gave -6.351%. Result for O=C(c1ccc(-c2cccc3c2CCNC3)o1)N1CCCCC1 was -26%.

The first 5 entries again:

For CCc1nc(C2CCCN(C(=O)NC3CC3)C2)no1 (stereo not shown) the result was -3.367%.
For CC[C@H](C)Nc1nccc(-c2cnc3sccn3c2=O)n1 the result was 0.08467%.
For O=C(c1cnc(-c2ccco2)s1)N1CCCC1Cn1cccn1 (stereo not shown) the result was 13.13%.
For COc1cccc(N2CCN(C(=O)c3noc4c3CCCCC4)CC2)c1 the result was 16.44%.
For O=C(O)C(F)(F)F.[H][C@@]12C[C@H](C(=O)NC)[C@@]([H])(CN(Cc3ccccc3)C1)O2 the result was -2.825%.